By UniProt entry, the sequences of proteins in these tests, tags left out.
UniProt Q9U1H9: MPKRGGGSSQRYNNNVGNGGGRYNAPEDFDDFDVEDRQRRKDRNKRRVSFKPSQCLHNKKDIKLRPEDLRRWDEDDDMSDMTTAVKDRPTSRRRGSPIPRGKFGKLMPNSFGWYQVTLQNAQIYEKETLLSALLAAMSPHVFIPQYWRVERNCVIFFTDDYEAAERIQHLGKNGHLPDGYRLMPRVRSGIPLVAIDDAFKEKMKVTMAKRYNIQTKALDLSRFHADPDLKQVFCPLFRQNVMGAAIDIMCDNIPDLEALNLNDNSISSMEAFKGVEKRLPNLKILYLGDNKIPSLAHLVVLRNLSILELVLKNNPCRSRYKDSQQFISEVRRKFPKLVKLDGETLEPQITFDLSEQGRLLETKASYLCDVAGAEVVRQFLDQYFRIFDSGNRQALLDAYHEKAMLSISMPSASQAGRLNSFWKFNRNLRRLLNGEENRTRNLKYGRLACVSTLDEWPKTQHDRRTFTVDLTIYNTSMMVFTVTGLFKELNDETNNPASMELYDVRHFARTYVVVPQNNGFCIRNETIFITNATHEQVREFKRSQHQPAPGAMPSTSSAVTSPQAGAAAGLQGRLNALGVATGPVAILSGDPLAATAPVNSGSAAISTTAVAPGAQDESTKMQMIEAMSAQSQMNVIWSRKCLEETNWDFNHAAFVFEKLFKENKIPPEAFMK

According to PMC8133776:

Tests used:
[1] = biological target: T1, BASU-Nup58 (Drosophila melanogaster) (UniProt Q9VDV3); assay: proximity labelling; HA-BASU fusion expressed in OSCs, 200 uM biotin for 1 hr, streptavidin pulldown of biotinylated proteins, TMT quantitative mass spectrometry against HA-ZsGreen control
T1 sequence: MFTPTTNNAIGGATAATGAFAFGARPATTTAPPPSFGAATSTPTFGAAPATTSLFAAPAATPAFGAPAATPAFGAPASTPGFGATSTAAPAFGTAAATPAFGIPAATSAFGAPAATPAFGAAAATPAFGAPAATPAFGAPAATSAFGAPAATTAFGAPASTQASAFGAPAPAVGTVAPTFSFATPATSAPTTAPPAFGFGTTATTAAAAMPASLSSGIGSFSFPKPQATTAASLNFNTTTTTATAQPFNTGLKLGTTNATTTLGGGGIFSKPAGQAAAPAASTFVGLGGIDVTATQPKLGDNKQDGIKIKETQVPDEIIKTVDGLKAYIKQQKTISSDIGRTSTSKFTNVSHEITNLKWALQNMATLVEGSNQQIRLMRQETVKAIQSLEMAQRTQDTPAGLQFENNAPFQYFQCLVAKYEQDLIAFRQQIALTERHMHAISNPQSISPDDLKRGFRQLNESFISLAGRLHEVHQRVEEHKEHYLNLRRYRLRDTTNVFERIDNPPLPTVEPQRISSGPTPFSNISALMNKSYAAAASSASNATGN

[2] = biological target: T2, BASU-Nup54 (Drosophila melanogaster) (UniProt Q9V6B9); assay: as above
T2 sequence: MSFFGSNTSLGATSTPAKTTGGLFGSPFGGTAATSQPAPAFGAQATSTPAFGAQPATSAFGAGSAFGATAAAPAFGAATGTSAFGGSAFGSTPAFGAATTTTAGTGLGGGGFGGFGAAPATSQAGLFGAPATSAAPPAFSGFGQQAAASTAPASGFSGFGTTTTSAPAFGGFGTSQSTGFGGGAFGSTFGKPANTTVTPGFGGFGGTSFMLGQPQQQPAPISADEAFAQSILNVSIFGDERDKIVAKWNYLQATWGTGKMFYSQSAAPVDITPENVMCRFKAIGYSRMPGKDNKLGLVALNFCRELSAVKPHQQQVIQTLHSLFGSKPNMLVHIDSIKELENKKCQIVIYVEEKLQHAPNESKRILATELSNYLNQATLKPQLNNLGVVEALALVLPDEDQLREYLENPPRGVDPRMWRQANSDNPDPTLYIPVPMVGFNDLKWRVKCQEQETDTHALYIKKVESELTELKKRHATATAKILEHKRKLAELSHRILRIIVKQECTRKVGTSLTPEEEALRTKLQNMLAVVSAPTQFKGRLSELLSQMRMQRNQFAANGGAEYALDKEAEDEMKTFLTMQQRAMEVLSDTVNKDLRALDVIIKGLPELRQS

binding [1]: binds weakly
binding [2]: binds weakly
Substance: Nxf1 (endogenous) (from UniProt Q9U1H9 1-672)

These are yes or no findings as the source states them, for the method shown. In cells and extracts the contact can be indirect. Here binding means that the protein was enriched with, or labelled near, the bait; the list need not be complete.
